Test results taken from the supplement of paper PMC11732987, “Enantioselective OTUD7B fragment discovery through chemoproteomics screening and high-throughput optimisation” (Communications Chemistry, 2025).
The list shows a part of the results. The data scatter; read single values as rough.

Sequences of proteins named here, by UniProt entry; tags and fusion partners are left off. A change or cut given only in a name is not applied to a line headed by its entry. Residues count along the entry.
UniProt Q14152, whole entry, looked up: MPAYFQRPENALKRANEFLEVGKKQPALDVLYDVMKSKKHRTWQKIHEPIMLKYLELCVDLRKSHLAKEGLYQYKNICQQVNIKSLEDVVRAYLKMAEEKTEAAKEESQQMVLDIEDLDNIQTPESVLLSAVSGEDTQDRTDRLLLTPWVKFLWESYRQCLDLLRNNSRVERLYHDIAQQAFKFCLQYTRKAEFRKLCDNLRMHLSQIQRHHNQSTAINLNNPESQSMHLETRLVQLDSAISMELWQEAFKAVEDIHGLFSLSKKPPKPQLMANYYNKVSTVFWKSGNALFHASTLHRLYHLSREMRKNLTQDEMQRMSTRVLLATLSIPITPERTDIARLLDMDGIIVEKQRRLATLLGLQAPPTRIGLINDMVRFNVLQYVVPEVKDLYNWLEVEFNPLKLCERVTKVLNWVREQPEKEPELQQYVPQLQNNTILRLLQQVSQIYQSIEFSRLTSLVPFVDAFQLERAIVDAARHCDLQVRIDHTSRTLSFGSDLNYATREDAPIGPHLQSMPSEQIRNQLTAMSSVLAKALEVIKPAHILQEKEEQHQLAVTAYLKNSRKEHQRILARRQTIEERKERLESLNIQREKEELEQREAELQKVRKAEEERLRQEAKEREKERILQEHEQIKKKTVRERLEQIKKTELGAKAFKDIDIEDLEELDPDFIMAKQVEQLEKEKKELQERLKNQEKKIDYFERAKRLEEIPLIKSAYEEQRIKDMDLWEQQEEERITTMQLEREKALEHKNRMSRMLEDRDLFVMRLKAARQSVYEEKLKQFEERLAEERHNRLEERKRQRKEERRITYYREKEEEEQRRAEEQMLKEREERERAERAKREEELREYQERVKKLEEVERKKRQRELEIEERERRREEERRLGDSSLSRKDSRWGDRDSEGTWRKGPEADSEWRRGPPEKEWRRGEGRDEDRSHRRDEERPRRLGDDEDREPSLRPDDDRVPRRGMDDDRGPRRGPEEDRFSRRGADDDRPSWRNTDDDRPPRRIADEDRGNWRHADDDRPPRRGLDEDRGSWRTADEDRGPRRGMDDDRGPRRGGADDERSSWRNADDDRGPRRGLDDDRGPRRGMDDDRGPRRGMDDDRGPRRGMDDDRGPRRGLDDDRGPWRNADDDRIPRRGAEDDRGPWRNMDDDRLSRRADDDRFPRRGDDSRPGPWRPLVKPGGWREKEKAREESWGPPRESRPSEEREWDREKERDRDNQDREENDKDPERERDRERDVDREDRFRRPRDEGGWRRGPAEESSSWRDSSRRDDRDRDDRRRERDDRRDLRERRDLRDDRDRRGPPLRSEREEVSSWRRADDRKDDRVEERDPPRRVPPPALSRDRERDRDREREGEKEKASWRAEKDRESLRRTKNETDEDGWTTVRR
UniProt Q9GZT9: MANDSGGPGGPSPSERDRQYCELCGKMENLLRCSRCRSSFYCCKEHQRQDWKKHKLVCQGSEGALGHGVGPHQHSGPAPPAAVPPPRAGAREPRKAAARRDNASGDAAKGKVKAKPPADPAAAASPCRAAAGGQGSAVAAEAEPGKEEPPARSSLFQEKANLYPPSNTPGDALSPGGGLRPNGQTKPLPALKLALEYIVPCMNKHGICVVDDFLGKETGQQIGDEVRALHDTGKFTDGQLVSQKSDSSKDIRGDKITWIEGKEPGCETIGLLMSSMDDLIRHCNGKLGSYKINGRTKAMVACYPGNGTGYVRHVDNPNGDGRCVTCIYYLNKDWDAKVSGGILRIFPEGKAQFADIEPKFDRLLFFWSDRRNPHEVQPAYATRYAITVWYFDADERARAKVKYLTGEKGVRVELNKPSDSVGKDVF
UniProt P26641, 254-275: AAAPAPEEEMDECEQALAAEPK
UniProt P15924: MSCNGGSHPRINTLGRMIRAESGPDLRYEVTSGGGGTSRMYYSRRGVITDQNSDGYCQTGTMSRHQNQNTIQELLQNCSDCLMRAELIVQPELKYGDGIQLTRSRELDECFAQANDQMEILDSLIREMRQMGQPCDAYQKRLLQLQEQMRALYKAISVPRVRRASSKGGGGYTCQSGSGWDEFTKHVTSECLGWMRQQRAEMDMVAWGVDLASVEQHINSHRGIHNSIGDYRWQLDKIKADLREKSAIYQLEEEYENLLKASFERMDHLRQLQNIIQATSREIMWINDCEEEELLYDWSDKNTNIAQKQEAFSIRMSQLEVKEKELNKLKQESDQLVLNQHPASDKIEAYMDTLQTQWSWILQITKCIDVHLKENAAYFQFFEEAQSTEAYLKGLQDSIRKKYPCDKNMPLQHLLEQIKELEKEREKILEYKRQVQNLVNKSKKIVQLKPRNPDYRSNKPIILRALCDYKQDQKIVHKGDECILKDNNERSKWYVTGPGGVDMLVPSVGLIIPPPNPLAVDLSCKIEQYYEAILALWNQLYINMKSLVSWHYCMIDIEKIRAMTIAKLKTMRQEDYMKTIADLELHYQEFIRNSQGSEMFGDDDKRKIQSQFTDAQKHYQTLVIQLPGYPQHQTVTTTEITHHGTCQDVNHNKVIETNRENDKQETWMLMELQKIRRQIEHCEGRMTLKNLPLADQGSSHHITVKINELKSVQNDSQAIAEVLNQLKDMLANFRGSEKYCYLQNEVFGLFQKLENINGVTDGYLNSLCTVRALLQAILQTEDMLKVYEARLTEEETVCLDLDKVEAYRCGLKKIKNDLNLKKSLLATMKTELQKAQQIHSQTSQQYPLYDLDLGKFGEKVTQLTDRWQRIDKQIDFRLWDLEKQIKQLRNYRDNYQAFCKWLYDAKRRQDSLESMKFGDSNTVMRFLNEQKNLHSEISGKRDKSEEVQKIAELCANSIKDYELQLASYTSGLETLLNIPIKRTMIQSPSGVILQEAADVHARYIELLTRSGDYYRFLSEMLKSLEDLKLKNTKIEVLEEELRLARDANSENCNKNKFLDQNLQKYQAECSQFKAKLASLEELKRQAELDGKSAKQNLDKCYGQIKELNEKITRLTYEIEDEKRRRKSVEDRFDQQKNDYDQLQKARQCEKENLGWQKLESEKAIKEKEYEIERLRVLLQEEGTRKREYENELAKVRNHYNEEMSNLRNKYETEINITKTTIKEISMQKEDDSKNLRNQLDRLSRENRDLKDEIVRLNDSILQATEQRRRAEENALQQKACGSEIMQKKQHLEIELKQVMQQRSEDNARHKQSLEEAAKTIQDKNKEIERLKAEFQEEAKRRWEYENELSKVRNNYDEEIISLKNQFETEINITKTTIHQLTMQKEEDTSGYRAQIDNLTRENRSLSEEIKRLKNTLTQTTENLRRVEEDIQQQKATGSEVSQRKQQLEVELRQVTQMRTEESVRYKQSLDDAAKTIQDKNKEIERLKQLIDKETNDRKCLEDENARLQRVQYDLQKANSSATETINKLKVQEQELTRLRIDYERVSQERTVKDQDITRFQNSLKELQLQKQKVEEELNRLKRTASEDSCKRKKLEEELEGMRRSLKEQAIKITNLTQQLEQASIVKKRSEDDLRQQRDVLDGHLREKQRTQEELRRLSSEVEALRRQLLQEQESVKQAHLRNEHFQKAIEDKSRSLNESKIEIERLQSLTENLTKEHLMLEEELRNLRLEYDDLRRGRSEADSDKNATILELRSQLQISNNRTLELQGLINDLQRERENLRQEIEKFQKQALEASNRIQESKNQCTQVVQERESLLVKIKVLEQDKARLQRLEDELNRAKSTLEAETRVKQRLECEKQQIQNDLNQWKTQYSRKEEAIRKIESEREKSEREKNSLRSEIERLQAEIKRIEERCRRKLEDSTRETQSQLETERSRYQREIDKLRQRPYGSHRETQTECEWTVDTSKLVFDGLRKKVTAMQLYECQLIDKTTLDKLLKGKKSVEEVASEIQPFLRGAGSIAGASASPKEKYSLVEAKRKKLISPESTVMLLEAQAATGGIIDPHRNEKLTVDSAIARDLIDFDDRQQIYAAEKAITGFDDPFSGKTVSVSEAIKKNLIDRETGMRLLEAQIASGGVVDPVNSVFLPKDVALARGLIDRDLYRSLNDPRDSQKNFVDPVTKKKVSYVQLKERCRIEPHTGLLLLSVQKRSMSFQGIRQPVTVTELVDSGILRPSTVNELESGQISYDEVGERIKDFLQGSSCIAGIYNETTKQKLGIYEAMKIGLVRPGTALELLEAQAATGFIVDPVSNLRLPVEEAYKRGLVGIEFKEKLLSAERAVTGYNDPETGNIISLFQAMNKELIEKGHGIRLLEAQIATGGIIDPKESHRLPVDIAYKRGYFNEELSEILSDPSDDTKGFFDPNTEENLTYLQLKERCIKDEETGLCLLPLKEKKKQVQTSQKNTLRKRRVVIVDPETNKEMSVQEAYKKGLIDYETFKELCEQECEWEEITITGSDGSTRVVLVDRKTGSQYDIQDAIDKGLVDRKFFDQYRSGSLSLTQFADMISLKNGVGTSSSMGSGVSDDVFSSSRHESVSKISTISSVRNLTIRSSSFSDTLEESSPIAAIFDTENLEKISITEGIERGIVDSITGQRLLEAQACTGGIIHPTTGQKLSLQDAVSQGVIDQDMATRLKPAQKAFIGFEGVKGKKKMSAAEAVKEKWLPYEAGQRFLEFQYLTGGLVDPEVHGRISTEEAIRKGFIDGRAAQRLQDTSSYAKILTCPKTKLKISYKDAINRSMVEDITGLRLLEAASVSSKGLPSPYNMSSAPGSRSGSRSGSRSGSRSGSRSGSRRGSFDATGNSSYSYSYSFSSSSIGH
UniProt Q9Y6G9: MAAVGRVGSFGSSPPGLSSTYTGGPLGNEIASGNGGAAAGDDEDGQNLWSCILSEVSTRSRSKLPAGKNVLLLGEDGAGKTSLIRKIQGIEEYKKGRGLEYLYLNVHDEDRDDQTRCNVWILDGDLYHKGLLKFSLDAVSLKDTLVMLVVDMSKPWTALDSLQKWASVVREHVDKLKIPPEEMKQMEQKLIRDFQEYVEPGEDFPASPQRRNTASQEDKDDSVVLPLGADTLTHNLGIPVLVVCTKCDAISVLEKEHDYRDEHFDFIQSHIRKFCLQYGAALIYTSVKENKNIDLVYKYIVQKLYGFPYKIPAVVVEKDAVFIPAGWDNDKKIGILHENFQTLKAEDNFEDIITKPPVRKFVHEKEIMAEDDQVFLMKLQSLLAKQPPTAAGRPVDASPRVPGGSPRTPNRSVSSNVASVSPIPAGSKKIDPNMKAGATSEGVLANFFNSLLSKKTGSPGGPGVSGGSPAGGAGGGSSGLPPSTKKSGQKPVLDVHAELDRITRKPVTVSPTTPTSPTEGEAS
UniProt Q9BQI3: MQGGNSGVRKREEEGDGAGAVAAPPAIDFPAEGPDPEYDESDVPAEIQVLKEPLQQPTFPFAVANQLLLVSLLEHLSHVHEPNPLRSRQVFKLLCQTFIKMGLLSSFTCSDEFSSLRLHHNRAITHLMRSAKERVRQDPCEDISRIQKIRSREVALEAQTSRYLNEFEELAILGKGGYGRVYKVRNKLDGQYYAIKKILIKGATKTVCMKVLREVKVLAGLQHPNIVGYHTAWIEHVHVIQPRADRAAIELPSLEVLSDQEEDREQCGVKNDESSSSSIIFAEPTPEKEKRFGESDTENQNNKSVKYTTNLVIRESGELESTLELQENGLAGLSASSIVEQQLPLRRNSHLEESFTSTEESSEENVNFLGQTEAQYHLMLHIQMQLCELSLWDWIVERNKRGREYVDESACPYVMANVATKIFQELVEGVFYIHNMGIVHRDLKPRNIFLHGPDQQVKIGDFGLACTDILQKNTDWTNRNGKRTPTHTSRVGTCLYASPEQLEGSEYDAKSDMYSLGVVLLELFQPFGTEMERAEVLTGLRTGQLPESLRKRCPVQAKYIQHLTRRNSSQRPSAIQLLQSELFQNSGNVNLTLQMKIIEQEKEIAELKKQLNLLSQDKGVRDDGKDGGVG
UniProt Q5JPH6: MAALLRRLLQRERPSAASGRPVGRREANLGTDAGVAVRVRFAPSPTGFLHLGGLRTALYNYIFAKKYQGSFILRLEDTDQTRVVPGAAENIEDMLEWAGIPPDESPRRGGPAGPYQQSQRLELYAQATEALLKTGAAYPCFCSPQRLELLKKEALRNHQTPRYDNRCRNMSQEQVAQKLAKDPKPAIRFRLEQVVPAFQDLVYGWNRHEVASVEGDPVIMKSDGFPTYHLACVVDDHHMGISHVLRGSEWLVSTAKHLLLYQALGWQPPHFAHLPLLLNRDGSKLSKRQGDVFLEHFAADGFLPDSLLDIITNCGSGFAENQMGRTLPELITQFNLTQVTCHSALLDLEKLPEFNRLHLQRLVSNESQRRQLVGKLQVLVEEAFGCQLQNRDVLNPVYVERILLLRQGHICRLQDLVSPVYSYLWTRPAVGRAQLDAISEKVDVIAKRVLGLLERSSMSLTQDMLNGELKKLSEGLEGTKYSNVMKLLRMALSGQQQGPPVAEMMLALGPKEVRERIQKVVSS
UniProt Q96G46, 384-404: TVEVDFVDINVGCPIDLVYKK

compound: ClCC(=O)N[C@H]1CCCc2ccccc12; assay: log2 mean competition ratio of IA-DTB cysteine labelling (DMSO/compound) (log2 ratio); higher = stronger cysteine engagement by compound; conditions: 50 µM; treatment time: 4 h; cell line lysate: HEK293T
Method: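 IA-DTB competitive cysteine chemoproteomics in HEK293T RIPA lysate. Lysates were treated with compound 29 or 30 at 50 or 200 µM for 4 h, then IA-DTB (500 µM, 1 h), trypsin-digested, NeutrAvidin-enriched and analysed by diaPASEF. Competition ratio = intensity DMSO / intensity compound (n=4 treated, n=64 DMSO); binding: mean log2 CR ≥ 1 and p ≤ 0.05 plus QC filters. Target is the cysteine site.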

| Target | log2 mean competition ratio |
| --- | --- |
| EIF3A C160 (UniProt Q14152) | -0.593 |
| EGLN1 C208 (UniProt Q9GZT9) | -0.0309 |
| EIF3G C169 | -0.268 |
| DROSHA C920 (UniProt Q9NRR4) | 0.000112 |
| EIF3F C256 (UniProt O00303) | -0.225 |
| ECT2 C796 (UniProt Q9H8V3) | 0.0128 |
| DUT C222 | 0.298 |
| EEF2 C290 (UniProt P13639) | 0.0866 |
| EI24 C24 (UniProt O14681) | 0.891 |
| EIF2AK4 C454 (UniProt Q9P2K8) | -0.87 |
| EEF1G C266 (UniProt P26641) | -0.0907 |
| ECPAS C1638 (UniProt Q5VYK3) | -0.378 |
| DSP C3 (UniProt P15924) | -0.0647 |
| DYNC1LI1 C117 (UniProt Q9Y6G9) | 0.352 |
| EIF3C C752 (UniProt Q99613) | -0.3 |
| ELL C121 (UniProt P55199) | -0.335 |
| EIF2AK1 C466 (UniProt Q9BQI3) | -0.279 |
| EARS2 C386 (UniProt Q5JPH6) | 0.0509 |
| EGFL7 C117 (UniProt Q9UHF1) | 0.137 |
| DUS3L C396 (UniProt Q96G46) | 0.0551 |

same assay, conditions: 200 µM; treatment time: 4 h; cell line lysate: HEK293T

| Target | log2 mean competition ratio |
| --- | --- |
| EIF3A C160 (UniProt Q14152) | 0.0278 |
| EGLN1 C208 (UniProt Q9GZT9) | 0.33 |
| EIF3G C169 | 0.0786 |
| DROSHA C920 (UniProt Q9NRR4) | 0.0945 |
| EIF3F C256 (UniProt O00303) | -0.16 |
| ECT2 C796 (UniProt Q9H8V3) | -0.046 |
| DUT C222 | -0.102 |
| EEF2 C290 (UniProt P13639) | -0.14 |
| EI24 C24 (UniProt O14681) | -0.169 |
| EIF2AK4 C454 (UniProt Q9P2K8) | -0.115 |
| EEF1G C266 (UniProt P26641) | 0.0402 |
| ECPAS C1638 (UniProt Q5VYK3) | -0.0428 |
| DSP C3 (UniProt P15924) | 0.238 |
| DYNC1LI1 C117 (UniProt Q9Y6G9) | 0.0685 |
| EIF3C C752 (UniProt Q99613) | -0.209 |
| ELL C121 (UniProt P55199) | 0.227 |
| EIF2AK1 C466 (UniProt Q9BQI3) | 0.0689 |
| EARS2 C386 (UniProt Q5JPH6) | -0.125 |
| EGFL7 C117 (UniProt Q9UHF1) | 0.258 |
| DUS3L C396 (UniProt Q96G46) | 0.322 |
